{
  "source": "patent US8895587B2",
  "about": "“Insecticidal compounds based on arylthioacetamide derivatives” (Syngenta Participations AG, priority 2011, dated 2014)",
  "test_system": "Plutella xylostella",
  "assay": "Plutella xylostella (diamond back moth) larval test on artificial diet",
  "assay_type": "in vivo",
  "conditions": "application rate 200 ppm (concentration in well 18 ppm); L2 larvae on artificial diet; 6 days",
  "protocol": "24-well microtiter plate (MTP) with artificial diet was treated with test solutions at an application rate of 200 ppm (concentration in well 18 ppm) by pipetting. After drying, the MTP's were infested with L2 larvae (7-12 per well). After an incubation period of 6 days, samples were checked for larval mortality and growth regulation.",
  "note": "Some entries share one result that the patent states for a list of compounds.",
  "data": [
    {"molecule": "N#CCCNC(=O)CSc1ccc(C2=NOC(c3cc(Cl)cc(Cl)c3)(C(F)(F)F)C2)cc1Br", "note": "(stereo not shown) [Compound A64]", "values": [
      {"measurement": "control of Plutella xylostella", "result": "at least 80%"}
    ]}
  ]
}
